Results as given in PubChem BioAssay AID248 (DTP/NCI, 2004).
The list does not hold the whole screen: it is rich in T/C values a quarter to a half above the control, in often repeated tests (any T/C) and in doses without a T/C. Other doses and runs of a compound stand elsewhere. T/C gives the treated animals as a percentage of the vehicle group. Some doses have a count of surviving animals in place of a T/C: the source files T/C as zero there, which appears to mark a toxic dose or a test without result, not a measured value. Some doses without a T/C left all or most animals alive at the check, yet need not have been tolerated: the source hardly ever lists a survival T/C far under the control, and the zero likely stands for such cases as well. Counts of survivors are from the toxicity check (mostly the fifth day) where no day follows; animals may have died later. Schedule codes are those of the source, read here as Q, the interval in days (D) or hours (H), X, the number of doses. Some doses were run more than once; their values stand side by side, smallest first.

Tested on: L1210 leukemia ip in BDF1 mice, survival T/C
Test: NCI In Vivo Anticancer Drug Screen. Data for tumor model L1210 Leukemia (intraperitoneal) in B6D2F1 (BDF1) mice
Details: T/C endpoint: mean survival time, higher T/C = longer survival
[1] = dose: 100.0 mg/kg/injection, schedule: Q04DX003 (ip), vehicle: Klucel (hydroxypropylcellulose) (HPC)
[2] = dose: 200.0 mg/kg/injection, schedule: Q04DX003 (ip), vehicle: Klucel (hydroxypropylcellulose) (HPC)
[3] = dose: 400.0 mg/kg/injection, schedule: Q04DX003 (ip), vehicle: Klucel (hydroxypropylcellulose) (HPC)
[4] = dose: 25.0 mg/kg/injection, schedule: Q01DX009 (ip), vehicle: saline with Tween-80
[5] = dose: 400.0 mg/kg/injection, schedule: Q01DX009 (ip), vehicle: Klucel (hydroxypropylcellulose) (HPC)
[6] = dose: 200.0 mg/kg/injection, schedule: Q01DX001 (ip), vehicle: carboxymethylcellulose (CMC)
[7] = dose: 400.0 mg/kg/injection, schedule: Q01DX001 (ip), vehicle: carboxymethylcellulose (CMC)
[8] = dose: 400.0 mg/kg/injection, schedule: Q04DX003 (ip), vehicle: saline

In the case of `CC1(C)Cc2cccc(OC(N)=O)c2O1`, the survivor count (dose: 12.5 mg/kg/injection, schedule: Q04DX003 (ip), vehicle: Klucel (hydroxypropylcellulose) (HPC)) is reported as 0 of 6, the survivor count (dose: 25.0 mg/kg/injection, schedule: Q04DX003 (ip), vehicle: Klucel (hydroxypropylcellulose) (HPC)) is reported as 0 of 6 and the survivor count (dose: 50.0 mg/kg/injection, schedule: Q04DX003 (ip), vehicle: Klucel (hydroxypropylcellulose) (HPC)) is reported as 0 of 6. The survivor count [1] was 0 of 6, the survivor count [2] was 0 of 6 and the survivor count [3] was 0 of 6.
For `CC[CH2][Sn]([CH2]CC)([CH2]CC)[O]C(=O)C(Cl)(Cl)Cl`, the survivor count (dose: 6.25 mg/kg/injection, schedule: Q01DX009 (ip), vehicle: saline with Tween-80) was 0 of 3, the survivor count (dose: 12.5 mg/kg/injection, schedule: Q01DX009 (ip), vehicle: saline with Tween-80) was 0 of 3 and the survivor count [4] was 0 of 3 and 0 of 6. For the same compound, the survivor count (dose: 50.0 mg/kg/injection, schedule: Q01DX009 (ip), vehicle: saline with Tween-80) was 0 of 6, the survivor count (dose: 100.0 mg/kg/injection, schedule: Q01DX009 (ip), vehicle: saline with Tween-80) was 0 of 6 and the survivor count (dose: 200.0 mg/kg/injection, schedule: Q01DX009 (ip), vehicle: saline with Tween-80) was 0 of 6. The survivor count (dose: 400.0 mg/kg/injection, schedule: Q01DX009 (ip), vehicle: saline with Tween-80) was 0 of 6.
For `CC12CC(=O)OC1(C)C1CCC2C1` (centres undefined), the survivor count (dose: 25.0 mg/kg/injection, schedule: Q01DX009 (ip), vehicle: acetone) was 4 of 6, the survivor count (dose: 50.0 mg/kg/injection, schedule: Q01DX001 (ip), vehicle: acetone) was 2 of 6 and the survivor count (dose: 100.0 mg/kg/injection, schedule: Q01DX001 (ip), vehicle: acetone) was 0 of 6. For the same compound, the survivor count (dose: 200.0 mg/kg/injection, schedule: Q01DX001 (ip), vehicle: acetone) was 0 of 6 and the survivor count (dose: 400.0 mg/kg/injection, schedule: Q01DX001 (ip), vehicle: acetone) was 0 of 6.
For `CCCCCCCCCCCCOCC[N+](C/C=C/c1ccccc1)(CCO)CCO`, the survivor count [4] was 2 of 6.
In the case of `CC1([N+](=O)[O-])COP(=O)(NC2CCCC2)OC1` (centres undefined), the survivor count (dose: 400.0 mg/kg/injection, schedule: Q01DX001 (ip), vehicle: saline) is reported as 1 of 4.
For `CC(C)=CCC(CCN1CCCCC1)(C(N)=O)c1cccc2ccccc12` (centres undefined), the survivor count (dose: 100.0 mg/kg/injection, schedule: Q01DX009 (ip), vehicle: Klucel (hydroxypropylcellulose) (HPC)) was 0 of 6, the survivor count (dose: 200.0 mg/kg/injection, schedule: Q01DX009 (ip), vehicle: Klucel (hydroxypropylcellulose) (HPC)) was 0 of 6 and the survivor count [5] was 0 of 6.
For `CN(C)CCC[N+]1([O-])c2ccccc2CCc2ccccc21`, the survivor count (dose: 150.0 mg/kg/injection, schedule: Q01DX009 (ip), vehicle: saline) was 0 of 6 and the survivor count (dose: 300.0 mg/kg/injection, schedule: Q04DX003 (ip), vehicle: saline) was 2 of 4.
For `C=CCN(CC=C)C(=S)NC(=O)c1ccccc1`, the survivor count [5] was 3 of 6.
In the case of `O=C(O)CC(C(=O)O)c1ccccc1O` (centres undefined), the survivor count [1] is reported as 6 of 6.
For `CCc1cccc2c1C(=O)OC2=O`, the survivor count (dose: 400.0 mg/kg/injection, schedule: Q01DX009 (ip), vehicle: saline) was 2 of 6.
For `N#CC(C#N)=Cc1cccnc1`, the survivor count [1] was 0 of 6, the survivor count [6] was 0 of 4 and the survivor count [2] was 0 of 6. For the same compound, the survivor count [7] was 0 of 4.
For `COCCN1CCC(CN2c3ccccc3Sc3ccccc32)C1` (centres undefined), the survivor count (dose: 200.0 mg/kg/injection, schedule: Q04DX003 (ip), vehicle: saline) was 0 of 6 and the survivor count [8] was 0 of 6.
For `CCc1ccc(N=O)cc1`, the survivor count (dose: 100.0 mg/kg/injection, schedule: Q01DX001 (ip), vehicle: carboxymethylcellulose (CMC)) was 2 of 4, the survivor count [6] was 0 of 4 and the survivor count [7] was 0 of 4.
`CCC1(CC)c2ccccc2C(CC)(CC)[N+]1(C)C` was tested, and the survivor count [7] was 3 of 6.
With `O=c1cc(C(F)(F)F)[nH]c2ccc(Br)cc12` the survivor count (dose: 100.0 mg/kg/injection, schedule: Q04DX003 (ip), vehicle: saline with Tween-80) was 5 of 6, the survivor count (dose: 200.0 mg/kg/injection, schedule: Q04DX003 (ip), vehicle: saline with Tween-80) was 4 of 6 and the survivor count (dose: 400.0 mg/kg/injection, schedule: Q04DX003 (ip), vehicle: saline with Tween-80) was 0 of 6.
`N#CCN(CC#N)CCCN(CC#N)CCCN(CC#N)CC#N` was tested, and the survivor count (dose: 100.0 mg/kg/injection, schedule: Q01DX001 (ip), vehicle: saline with Tween-80) was 1 of 3, the survivor count (dose: 200.0 mg/kg/injection, schedule: Q01DX001 (ip), vehicle: saline with Tween-80) was 0 of 3 and the survivor count (dose: 400.0 mg/kg/injection, schedule: Q01DX001 (ip), vehicle: saline with Tween-80) was 0 of 3.
With `CC(C)(C)OC(=O)N1Cc2cc3ccccc3nc2C1` the survivor count (dose: 200.0 mg/kg/injection, schedule: Q01DX009 (ip), vehicle: saline) was 3 of 6 and the survivor count [8] was 3 of 6.
For `O=[N+]([O-])c1cccc(NCn2c(=S)[nH]c3ccccc32)c1`, the survivor count [5] was 0 of 6.
`Cc1ccc(N2CCN(CCCN3CCN(c4ccc(Cl)cc4)CC3)CC2)cc1` was tested, and the survivor count [2] was 5 of 6 and the survivor count [3] was 5 of 6.
`C=CCN1/C(=C\C=C\c2ccc3cc(C)ccc3[n+]2CC=C)C=Cc2cc(C)ccc21` was tested, and the survivor count (dose: 2.34 mg/kg/injection, schedule: Q01DX001 (ip), vehicle: steroid suspending solution) was 3 of 6, the survivor count (dose: 4.68 mg/kg/injection, schedule: Q01DX001 (ip), vehicle: steroid suspending solution) was 6 of 6 and the survivor count (dose: 9.38 mg/kg/injection, schedule: Q01DX001 (ip), vehicle: steroid suspending solution) was 5 of 6. For the same compound, the survivor count (dose: 18.75 mg/kg/injection, schedule: Q01DX001 (ip), vehicle: steroid suspending solution) was 2 of 6 and the survivor count (dose: 37.5 mg/kg/injection, schedule: Q01DX001 (ip), vehicle: steroid suspending solution) was 3 of 6.
For `CC(O)CC[P+](c1ccccc1)(c1ccccc1)c1ccccc1` (centres undefined), the survivor count (dose: 300.0 mg/kg/injection, schedule: Q01DX001 (ip), vehicle: other) was 0 of 6.
With `Cc1ccc(S/N=C\c2ccccc2O)cc1` the survivor count (dose: 100.0 mg/kg/injection, schedule: Q04DX002 (ip), vehicle: Klucel (hydroxypropylcellulose) (HPC)) was 3 of 3.
With `NC(=O)c1cn(C2OC(CO)C(O)C2O)c2ncnc(N)c2c1=O` (centres undefined) the survivor count (dose: 100.0 mg/kg/injection, schedule: Q01DX005 (ip), vehicle: saline) was 2 of 6 and the survivor count (dose: 200.0 mg/kg/injection, schedule: Q01DX005 (ip), vehicle: saline) was 0 of 6.
`CSc1nc2ccccc2s1` was tested, and the survivor count [5] was 1 of 6.
